Drawing on publication PMC6588346, this text covers binding for 1 substance.

Sequences of proteins named here, by UniProt entry; tags and fusion partners are left off.
UniProt P18850: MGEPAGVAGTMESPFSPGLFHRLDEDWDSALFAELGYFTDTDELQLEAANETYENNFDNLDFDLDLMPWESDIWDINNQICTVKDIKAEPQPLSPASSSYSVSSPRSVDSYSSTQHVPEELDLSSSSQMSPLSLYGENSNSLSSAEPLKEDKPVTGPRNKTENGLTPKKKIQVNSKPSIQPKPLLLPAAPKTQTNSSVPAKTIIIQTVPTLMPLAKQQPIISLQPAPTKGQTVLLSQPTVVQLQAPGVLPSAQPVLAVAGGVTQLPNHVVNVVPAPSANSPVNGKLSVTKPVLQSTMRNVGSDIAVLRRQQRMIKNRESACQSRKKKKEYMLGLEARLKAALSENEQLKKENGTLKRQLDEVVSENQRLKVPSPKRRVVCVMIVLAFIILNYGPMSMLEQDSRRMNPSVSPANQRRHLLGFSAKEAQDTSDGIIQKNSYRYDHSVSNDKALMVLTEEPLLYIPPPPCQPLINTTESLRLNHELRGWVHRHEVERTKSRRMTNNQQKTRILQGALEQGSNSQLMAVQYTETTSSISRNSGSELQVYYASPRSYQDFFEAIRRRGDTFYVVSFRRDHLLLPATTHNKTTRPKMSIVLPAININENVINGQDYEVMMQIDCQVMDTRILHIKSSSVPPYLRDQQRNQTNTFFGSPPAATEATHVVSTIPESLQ

These are yes or no findings as the source states them, for the method shown. Binding seen in cells or lysates may run through a third protein. Here binding means that the protein was enriched with, or labelled near, the bait; the list need not be complete.

The target in this test is 6xHis-3xFLAG-HsATF6α (human) (UniProt P18850). As to the kind of experiment: affinity purification with mass spectrometry; anti-FLAG M2 beads, native IP from 3xFLAG-ATF6α HEK293 cells treated with 100 nM Tg and 6 μM Ceapin-A7 for 30 min; 1% LMNG lysis, Ceapin kept in the buffers; TMT, MuDPIT.

For the substance SQSTM1 (from UniProt Q13501 1-440), the binding entry is recorded as “binds”.
